Drawing on paper PMC10266735, this text covers binding for three molecules.

By UniProt entry, the sequences of proteins in these tests, tags left out. Residues count along the entry.
UniProt Q9Y5R2, residues 156-645: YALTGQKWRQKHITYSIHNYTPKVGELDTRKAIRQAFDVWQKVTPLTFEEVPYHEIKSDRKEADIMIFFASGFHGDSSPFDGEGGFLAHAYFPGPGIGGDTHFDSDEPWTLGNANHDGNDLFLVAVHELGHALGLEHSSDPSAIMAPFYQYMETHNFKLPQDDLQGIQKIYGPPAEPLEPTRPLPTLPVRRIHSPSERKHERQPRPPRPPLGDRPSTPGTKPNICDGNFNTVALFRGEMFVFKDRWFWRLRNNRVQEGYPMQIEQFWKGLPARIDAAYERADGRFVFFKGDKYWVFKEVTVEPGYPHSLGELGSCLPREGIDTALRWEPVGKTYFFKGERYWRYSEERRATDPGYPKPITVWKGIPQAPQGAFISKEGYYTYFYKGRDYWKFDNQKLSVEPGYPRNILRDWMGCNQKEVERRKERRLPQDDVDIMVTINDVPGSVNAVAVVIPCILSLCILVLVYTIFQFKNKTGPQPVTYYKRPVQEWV

Results are given in words; binding and its absence hold for the method and conditions named. In cells and extracts the contact can be indirect. Some entries that bind do so weakly or less than the wild type.

Experiment [1] concerns the target T1, syndecan-1 (in VE-cadherin-positive endothelial extracellular vesicles from plasma) (human (endogenous in plasma extracellular vesicles)) (UniProt P18827).
T1 sequence: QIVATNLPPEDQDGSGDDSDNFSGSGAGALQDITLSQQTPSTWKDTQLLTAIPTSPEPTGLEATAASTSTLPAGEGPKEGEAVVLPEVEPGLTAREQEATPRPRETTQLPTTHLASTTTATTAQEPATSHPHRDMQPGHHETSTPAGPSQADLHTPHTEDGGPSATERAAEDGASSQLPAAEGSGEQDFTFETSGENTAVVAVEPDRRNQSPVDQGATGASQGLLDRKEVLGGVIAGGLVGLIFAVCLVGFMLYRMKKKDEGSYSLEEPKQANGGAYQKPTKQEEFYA
The experiment can be described thus: co-IP; VE-cadherin-positive extracellular vesicles from 300 ul plasma of five healthy controls and five hemorrhagic trauma patients, 0.1% Triton X-100, syndecan-1 immunoprecipitation as for cell lysates, immunoblot for MMP24.

Experiment [2] deals with T2, syndecan-1 (human (endogenous in HUVEC)) (UniProt P18827).
T2 sequence: T1 sequence
The experiment is described as follows: co-IP; HUVEC lysate (50 mM tris-HCl pH 7.5, 150 mM NaCl, EDTA, 1% Triton X-100), anti-syndecan-1 antibody and protein A magnetic beads, washed with PBS, immunoblot for membrane MMPs; cells under normoxia or hypoxia-reoxygenation.

“matrix metalloproteinase 24 (in VE-cadherin-positive endothelial extracellular vesicles from plasma) (from UniProt Q9Y5R2 156-645) (enzyme)”: in experiment [1], the binding entry is “binds”.
Regarding “matrix metalloproteinase 24 (from UniProt Q9Y5R2 156-645) (enzyme)”, the binding entry in experiment [2] was “binds”.

B1: matrix metalloproteinase 25 (enzyme, UniProt Q9NPA2 108-539)
chain: YALSGSVWKKRTLTWRVRSFPQSSQLSQETVRVLMSYALMAWGMESGLTFHEVDSPQGQEPDILIDFARAFHQDSYPFDGLGGTLAHAFFPGEHPISGDTHFDDEETWTFGSKDGEGTDLFAVAVHEFGHALGLGHSSAPNSIMRPFYQGPVGDPDKYRLSQDDRDGLQQLYGKAPQTPYDKPTRKPLAPPPQPPASPTHSPSFPIPDRCEGNFDAIANIRGETFFFKGPWFWRLQPSGQLVSPRPARLHRFWEGLPAQVRVVQAAYARHRDGRILLFSGPQFWVFQDRQLEGGARPLTELGLPPGEEVDAVFSWPQNGKTYLVRGRQYWRYDEAAARPDPGYPRDLSLWEGAPPSPDDVTVSNAGDTYFFKGAHYWRFPKNSIKTEPDAPQPMGPNWLDCPAPSSGPRAPRPPKATPVSETCDCQCELNQA
Regarding B1, the binding entry in experiment [2] is given as “binds”.
